In all, about 400,000 compounds went through this assay and about 13,000 (3.2%) were called active. Inconclusive results, whose numbers are uncertain, are shown with a selection of clear calls. Calls follow the shape of the dose curve; as a rule, active = well fitted cell-killing curve with a large enough effect; inconclusive = small, poorly fitted or top-dose-only effect, or effect the other way; inactive = flat fitted curve, though single readings scatter. Where the call is inconclusive, the potency comes from a doubtful curve fit.
assay: qHTS assay for MDR1-selective chemotherapeutics: Primary screen using the drug-selected MDR subline cells KB-V1; settings: KB-V1 MDR cells viability, CellTiter-Glo, 72 h; series mostly up to 46.1 µM; also: nearly all actives have a fitted effect of over 60% in size
Method in brief: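 Drug-selected KB-V1 cells, grown in DMEM lacking phenol red with 10% FBS, receive compound titrations; after three days at 37 degrees C, surviving cell ATP is quantified by CellTiter-Glo luminescence and responses normalized and curve-fitted.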
Potency is read from the fitted curve at half-maximal effect.

Row | SMILES | Potency
1 | O=C(C[C@H]1C/C=C\CC[C@@H](Cc2ccc(F)cc2)C(=O)O[C@H](c2ccccc2)CNC1=O)N[C@H](CO)Cc1ccccc1 | inactive
2 | Cc1ccc(C(=O)CSc2nnc(-c3c[nH]c4ccccc34)o2)cc1 | inconclusive: 29.1 µM [cytotoxic, single point]
3 | O=C(NNC(=O)c1ccccn1)c1ccc(OC(F)F)cc1 | inconclusive: 18.4 µM [cytotoxic, partial curve, poor fit]
4 | Cc1cccc(N2CCN(C(=O)Cn3cnc4c3c(=O)n(C)c(=O)n4C)CC2)c1C | inactive
5 | O=C(Nc1ccc(Cl)cn1)c1cccc(F)c1 | active: 3.66 µM
6 | O=C(Cc1ccccc1[N+](=O)[O-])NCCCc1ccccc1 | inactive
7 | COc1ccc(N=c2cc(-c3ccc(OC)cc3)oc3ccccc23)cc1 | inconclusive: 16.4 µM [cytotoxic, partial curve, poor fit]
8 | O=C(Cc1ccc(Cl)cc1)N1CCc2ccccc2C1 | inconclusive: 32.6 µM [cytotoxic, single point]
9 | O=C(CSc1nnc(-c2ccco2)n1CC1CCCO1)N1CCCCC1 (stereo not drawn) | inconclusive: 25.9 µM [cytotoxic, single point]
10 | Cc1ccccc1NCN1C(=O)C2C3C=CC(C3)C2C1=O (stereo not drawn) | inconclusive: 4.61 µM [rising, full curve, poor fit]
11 | CC(C)C(=O)NC(c1cccc([N+](=O)[O-])c1)c1ccc2cccnc2c1O (stereo not drawn) | inconclusive: 1.3 µM [cytotoxic, full curve, poor fit]
12 | Cc1cc(Cl)ccc1OC(C)C(=O)NC(C)C1CCCO1 (stereo not drawn) | inconclusive: 1.46 µM [cytotoxic, full curve]
13 | CCOC(=O)c1ccccc1NC(=O)/C=C/c1cc(OC)c(OC)c(OC)c1 | inactive
14 | O=C(COC(=O)/C=C/c1cccs1)NC1CCCCC1 | inconclusive: 25.9 µM [rising, single point]
15 | O=C(c1ccc(-c2ccccc2)c(F)c1)C1CCCN(C(=O)c2cncs2)C1 (stereo not drawn) | inconclusive: 14.6 µM [cytotoxic, single point]
16 | COCc1nc(-c2cc(OC)c(OC)c(OC)c2)no1 | inactive
17 | CCc1nnc(NC(=O)c2ccc(S(=O)(=O)N(CC)CC)cc2)s1 | inactive
18 | Cc1ccnc(NC(=O)CCC(=O)N(CC(=O)NC(C)(C)C)c2ccc3c(c2)OCCO3)c1 | inactive
19 | CCCCC(CCC(=O)Nc1ccc(C(=O)OC)cc1)C(=O)O (stereo not drawn) | inconclusive: 29.1 µM [rising, single point]
20 | O=C1/C(=C/c2ccc(O)cc2)COc2ccccc21 | inactive
21 | CCc1ccccc1NC(=O)C(CC)Oc1ccccc1-c1nnc(-c2ccccc2)o1 (stereo not drawn) | inconclusive: 7.31 µM [cytotoxic, partial curve, poor fit]
22 | CC(C)C(OC(=O)c1cccs1)C(=O)NC1CCCCC1 (stereo not drawn) | inconclusive: 23.1 µM [cytotoxic, partial curve]
23 | CCCCN(Cc1ccccc1)S(=O)(=O)c1cc(Br)cc2c1N(C(C)=O)CC2 | inactive
24 | CCCCNC(=O)c1nc(-c2ccncc2)oc1-c1ccccc1 | inactive

Row | SMILES | Potency
25 | COc1cccc(C#CC2=CC(=O)C[C@H](c3ccc(F)cc3)C2)c1 | inactive
26 | CSc1ccccc1NC(=O)c1cc(-c2cccs2)on1 | inconclusive: 29.1 µM [cytotoxic, single point]
27 | C=C(Br)COC(c1ccco1)[C@H](Cc1ccccc1)NC(=O)OC(C)(C)C (stereo partly drawn) | inconclusive: 29.1 µM [cytotoxic, single point]
28 | Cc1ccc2oc(=O)n(CCOc3ccccc3C)c2c1 | inconclusive: 9.2 µM [cytotoxic, single point]
29 | Cc1cc(C)n(CC(=O)c2cccc(N)c2)n1 | inconclusive: 29.1 µM [rising, single point]
30 | CC1(C)Oc2ccc(C(=O)Nc3ccccc3F)cc2N(CC(=O)N2CCOCC2)C1=O | inactive
31 | CCOc1ccc(CNC(=O)c2cccn2-c2nnc(N3CCCCC3)s2)cc1OC | inactive
32 | COC(=O)c1ccc(N2CC3CNC(=O)C2(C(=O)OC)N3C)cc1 (stereo not drawn) | inconclusive: 29.1 µM [rising, single point]
33 | O=C(Nc1ccc(Cl)cn1)c1ccccc1F | inconclusive: 16.4 µM [cytotoxic, partial curve, poor fit]
34 | CC1(C)Cc2c(ccc3ccccc23)/C(=C/C#N)N1 | inactive
35 | COCCN(Cc1cc2cc(C)cc(C)c2nc1Cl)C(=O)Nc1ccccc1 | active: 5.8 µM
36 | COc1ccc(-c2cc(OC)c3c(C)oc(C)c3c(=O)c2)cc1OC | inconclusive: 23.1 µM [cytotoxic, partial curve, poor fit]
37 | Cc1cn(CC(=O)N[C@H](CO)Cc2c[nH]c3ccccc23)c(=O)[nH]c1=O | inactive
38 | CC(=Nc1ccccc1)C1=C(O)C(Cc2cccc(F)c2)NC1=O (stereo not drawn) | active: 1.16 µM
39 | Cc1cc(C)n(-c2ccc(S(=O)(=O)N3CCCC3)cc2[N+](=O)[O-])n1 | inconclusive: 20.6 µM [cytotoxic, single point]
40 | Cc1ccc(S(=O)(=O)c2nc(-c3ccco3)oc2SCc2ccc(F)cc2)cc1 | inconclusive: 18.4 µM [cytotoxic, single point]
41 | COc1cc(Cl)ccc1OCc1cc(C(=O)N[C@H]2CCCCNC2=O)no1 | inactive
42 | O=C(Cc1cccc(NC(=O)C2CCCN(C(=O)CCc3ccccc3)C2)c1)Nc1ccc(C(=O)N2CCCCC2)cc1 (stereo not drawn) | inactive
43 | N#C/C(=C\c1c(Cl)cccc1Cl)c1nc2ccccc2o1 | inactive
44 | COc1ccc(Cn2cnc3c4cc(F)ccc4n(C)c3c2=O)cc1 | inconclusive: 1.03 µM [rising, full curve]
45 | O=C(c1cccc(F)c1)N1CCN(c2ccc([N+](=O)[O-])c3cccnc23)CC1 | inconclusive: 7.31 µM [cytotoxic, partial curve]
46 | COC(=O)c1ccccc1NC(=O)COC(=O)c1ccccc1N=Nc1ccc(N(C)C)cc1 | inactive
47 | COc1cccc2c1-c1c(C(=O)O)cccc1C2=O | inconclusive: 2.06 µM [rising, partial curve]
48 | CCN(CC)CCCNCC(=O)Nc1cc(C)on1 | inconclusive: 0.0073 µM [rising, full curve, poor fit]

Some of these compounds in order of number of heavy atoms, rising.
Row | SMILES | Potency
33 | O=C(Nc1ccc(Cl)cn1)c1ccccc1F | inconclusive: 16.4 µM [cytotoxic, partial curve, poor fit]
34 | CC1(C)Cc2c(ccc3ccccc23)/C(=C/C#N)N1 | inactive
14 | O=C(COC(=O)/C=C/c1cccs1)NC1CCCCC1 | inconclusive: 25.9 µM [rising, single point]
43 | N#C/C(=C\c1c(Cl)cccc1Cl)c1nc2ccccc2o1 | inactive
3 | O=C(NNC(=O)c1ccccn1)c1ccc(OC(F)F)cc1 | inconclusive: 18.4 µM [cytotoxic, partial curve, poor fit]
19 | CCCCC(CCC(=O)Nc1ccc(C(=O)OC)cc1)C(=O)O (stereo not drawn) | inconclusive: 29.1 µM [rising, single point]
17 | CCc1nnc(NC(=O)c2ccc(S(=O)(=O)N(CC)CC)cc2)s1 | inactive
2 | Cc1ccc(C(=O)CSc2nnc(-c3c[nH]c4ccccc34)o2)cc1 | inconclusive: 29.1 µM [cytotoxic, single point]
37 | Cc1cn(CC(=O)N[C@H](CO)Cc2c[nH]c3ccccc23)c(=O)[nH]c1=O | inactive
11 | CC(C)C(=O)NC(c1cccc([N+](=O)[O-])c1)c1ccc2cccnc2c1O (stereo not drawn) | inconclusive: 1.3 µM [cytotoxic, full curve, poor fit]
23 | CCCCN(Cc1ccccc1)S(=O)(=O)c1cc(Br)cc2c1N(C(C)=O)CC2 | inactive
40 | Cc1ccc(S(=O)(=O)c2nc(-c3ccco3)oc2SCc2ccc(F)cc2)cc1 | inconclusive: 18.4 µM [cytotoxic, single point]
30 | CC1(C)Oc2ccc(C(=O)Nc3ccccc3F)cc2N(CC(=O)N2CCOCC2)C1=O | inactive
18 | Cc1ccnc(NC(=O)CCC(=O)N(CC(=O)NC(C)(C)C)c2ccc3c(c2)OCCO3)c1 | inactive
46 | COC(=O)c1ccccc1NC(=O)COC(=O)c1ccccc1N=Nc1ccc(N(C)C)cc1 | inactive

Reference: PubChem BioAssay AID1347076 (National Center for Advancing Translational Sciences (NCATS), 2019)
